# In PubChem BioAssay AID720607 (Broad Institute, 2013):
# Some of the results follow. These are further read-outs of the screen, such as a control signal, another cell line or another target. No call is given for them. Compounds called inactive in the main read-out are mostly missing here.
# Test: cytotoxicity in CCRF-CEM lymphoblastic leukemia cells – cell-based, CellTiter-Glo ATP luminescence, 8/24/48 h, dry powder, HRAS target identification, dose response (AID 720607)
# Conditions: CCRF-CEM viability, 8-48 h, top conc, at 35 µM, stronger effect = lower value
structure (smiles),measurement,setting,value
CCC(=O)N(c1ccc(OC)c(Cl)c1)C(C(=O)NCCc1ccccc1)c1cccs1 (configuration not stated),activity change,8 h series,-5.22%
same,activity change,24 h series,-35.2%
